PubChem BioAssay AID1508597 | Cure First, 2020

Purpose: 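Knock-downs altering ovarian cancer cell survival with or without PARP inhibitor rucaparib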 (primary screen)
Cells: human ovarian carcinoma lines grown from tumours: OCI-P5x (papillary serous) and OCI-C5x (clear cell)
Reagent: siRNA pool against human genes, 1.25 pmol siRNA per well
Duration: 72 h or 96 h, depending on the cell culture
Challenge: rucaparib 20 µM (about IC30) or vehicle, present until read-out
Rucaparib or vehicle: Vehicle
Cell line: OCI-P5x (serous)
Detection: 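ATP luminescence measured at 72 or 96 h according to the culture, then normalised and expressed as percent viability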
Reading the numbers: viability, normalised: higher = more viable cells remaining
Active means: 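a well counts as a hit if its normalised viability is under 80 percent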
Calls: active = viability under 80%; inactive = viability 80% or more
This is an unselected part of the about 2,100 reagents, under one of the conditions tested. 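Calls flag viability under 80% in either arm, not effects specific to rucaparib; the reference for percent is not stated.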 A number with no mark means an inactive call. A reagent listed more than once was tested more than once; the source does not tell the runs apart. No sequences are given here. Not stated in the record: the 100% reference.

gene knocked down	technical replicate	viability, normalised (%)
TAF12	1	66 (active)
TAF12	2	74.4 (active)
TAF12	3	62.7 (active)
CAMK2G	1	71.3 (active)
CAMK2G	1	70.5 (active)
CAMK2G	2	63.3 (active)
CAMK2G	2	86.1
CAMK2G	3	53.1 (active)
CAMK2G	3	86.5
AGRN	1	52.9 (active)
AGRN	2	53.7 (active)
AGRN	3	59.5 (active)
RIGI	1	65.6 (active)
RIGI	2	105
RIGI	3	75.1 (active)
DPH5	1	30.7 (active)
DPH5	2	34.4 (active)
DPH5	3	81.3
EPHB4	1	67.8 (active)
EPHB4	2	79.5 (active)
EPHB4	3	85.1
MPHOSPH8	1	63.1 (active)
MPHOSPH8	2	69 (active)
MPHOSPH8	3	65.4 (active)
LSM1	1	66 (active)
LSM1	2	61.7 (active)
LSM1	3	75.8 (active)
LRRK1	1	82.7
LRRK1	2	78.9 (active)
LRRK1	3	79.9 (active)
ACVR1C	1	101
ACVR1C	2	89.3
ACVR1C	3	102
RAD51B	1	87.6
RAD51B	2	104
RAD51B	3	91.4
SP1	1	58.5 (active)
SP1	2	63 (active)
SP1	3	53.2 (active)
NR3C1	1	21.5 (active)
NR3C1	2	31 (active)
NR3C1	3	30.8 (active)
TDRD9	1	82.6
TDRD9	2	62.4 (active)
TDRD9	3	78.4 (active)
RBKS	1	73.9 (active)
RBKS	2	59.2 (active)
RBKS	3	76.8 (active)
ERN1	1	68.2 (active)
ERN1	2	54.1 (active)
ERN1	3	79.3 (active)
ERRFI1	1	59.5 (active)
ERRFI1	2	57.5 (active)
ERRFI1	3	58.6 (active)
RNF20	1	74.6 (active)
RNF20	2	80 (active)
RNF20	3	99.4

7 entries from above, arranged by “viability, normalised (%)”, low to high.
gene knocked down	technical replicate	viability, normalised (%)
NR3C1	1	21.5 (active)
NR3C1	2	31 (active)
SP1	3	53.2 (active)
SP1	1	58.5 (active)
SP1	2	63 (active)
RAD51B	3	91.4
RAD51B	2	104
